PMC10604809
No constants are given. Whether binding was seen depends on the method and setting. In cells and extracts the contact can be indirect. Some entries that bind do so weakly or less than the wild type.

By UniProt entry, the sequences of proteins in these tests, tags left out.
UniProt P0A6Y8: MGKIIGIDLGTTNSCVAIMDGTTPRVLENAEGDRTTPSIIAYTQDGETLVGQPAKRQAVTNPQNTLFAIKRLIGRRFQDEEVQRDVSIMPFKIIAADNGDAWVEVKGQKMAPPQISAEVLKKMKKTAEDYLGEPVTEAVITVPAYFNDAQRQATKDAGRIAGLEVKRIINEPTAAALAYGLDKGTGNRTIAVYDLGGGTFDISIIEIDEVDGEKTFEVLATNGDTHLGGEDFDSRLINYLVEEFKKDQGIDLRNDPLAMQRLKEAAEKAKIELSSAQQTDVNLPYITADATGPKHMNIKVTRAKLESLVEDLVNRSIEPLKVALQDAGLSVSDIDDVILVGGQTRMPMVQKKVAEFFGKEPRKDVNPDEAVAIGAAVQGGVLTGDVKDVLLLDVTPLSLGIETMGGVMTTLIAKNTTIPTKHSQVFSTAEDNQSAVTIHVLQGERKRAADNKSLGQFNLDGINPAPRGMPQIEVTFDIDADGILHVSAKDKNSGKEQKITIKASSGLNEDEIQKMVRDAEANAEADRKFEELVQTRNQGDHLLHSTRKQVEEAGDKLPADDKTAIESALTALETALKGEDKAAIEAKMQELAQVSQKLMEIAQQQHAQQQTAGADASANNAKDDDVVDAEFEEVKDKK
UniProt P08622: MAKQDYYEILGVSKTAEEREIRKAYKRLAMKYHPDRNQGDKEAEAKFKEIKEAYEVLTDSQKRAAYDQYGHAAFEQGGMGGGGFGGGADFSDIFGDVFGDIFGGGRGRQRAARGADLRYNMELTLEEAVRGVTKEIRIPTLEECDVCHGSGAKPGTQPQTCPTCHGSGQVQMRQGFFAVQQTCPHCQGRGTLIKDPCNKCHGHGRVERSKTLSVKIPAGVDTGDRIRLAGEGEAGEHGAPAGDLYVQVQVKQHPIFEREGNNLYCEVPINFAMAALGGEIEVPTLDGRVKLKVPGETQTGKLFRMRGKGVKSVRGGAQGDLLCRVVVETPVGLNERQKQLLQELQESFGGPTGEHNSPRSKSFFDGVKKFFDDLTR

Target: cYFP-tagged DnaK (E. coli HSP70) (E. coli) (UniProt P0A6Y8)
Assay: split reporter; nYFP and cYFP fusions co-expressed from one pRSF-Duet1 construct in E. coli cells; YFP fluorescence seen by fluorescence microscopy

For “nYFP-tagged DnaJ (E. coli HSP40) (from UniProt P08622 1-376)”, the binding was “binds”.
